This is an account of results in PubChem BioAssay AID1347431 (National Center for Advancing Translational Sciences (NCATS), 2020).

Among all 1,200 compounds or so, fewer than 10 were called active. Calls come from the whole dose curve; as a rule, active = well fitted curve in the direction sought with a large enough effect; inconclusive = small, poorly fitted or top-dose-only effect, or another doubt; inactive = no such curve, though single readings can be large or run the other way. The list shows a part of the results.

The test in a line: Confirmatory qHTS assay for inhibitors of Activation Induced Cytidine Deaminase (AID): UDG signals. Note: 0% is about no effect. The conditions noted are these: UDG coupled enzyme activity counter-screen; at 115 µM (top of the series) unless noted. An excerpt:
Assay Provider (PI) Patricia Gearhart Ph.D.
National Institute on Aging
National Institute of Health (NIH), Bethesda, MD
Assay Provider (PI) Rahul Kohli Ph.D.
Perelman School of Medicine
University of Pennsylvania, Philadelphia, PA
Activation-Induced Deaminase (AID) is a cytosine deaminase which converts cytosine into uracil within stretches of ssDNA. The presence of uracil in DNA initiates a cascade of mutagenic DNA repair to introduce point mutations and DNA double strand breaks. Specific targeting of AID to the immunoglobulin heavy chain loci (Igh) promotes mutagenesis in the antibody variable region for somatic hypermutation (SHM) or switch regions leading to class switch recombination (CSR). However, AID also plays a role in accumulating unnecessary mutations across the genome. Mis-targeting of AID results in the initiation of tumor development and leads to greater drug resistance among cancer cells when continually expressed. To identify an AID inhibitor, a small molecule library will be screened in collaboration with NCATS core facility at NIH. To confirm biological function, inhibitors will be examined in an in vitro murine B-cell activation assay and subsequent secondary validation screens. Top molecules will be further screened to identify inhibitory efficacy against a wild type primary splenocytes assay. Using these approaches, we hope to identify a small molecule with great efficacy and low toxicity for use as a molecular probe to further characterize AID's intricacies, or even as a therapeutic.
A FRET based analysis of cytosine deamination, was developed to identify potential inhibitors of AID catalytic activity. This screen has two signal output, Read 1 evaluates the AID inhibition response. The second readout (Read 2) evaluates UDG response and is uses as a counterscreen to exclude false positive inhibitors. Inhibition in AID and inactivity in the UDG signal is the desired outcome for this assay.
SEQUENCE No. (e.g., 1, 2, 3, etc.); […] (e.g., Cells, Incubation, Reagent, etc.); VALUE; DESCRIPTION
1a; Reagent; 3 uL; [4/3x] 1 uM AID/2.67 U/mL UDG
1b; Reagent; 3 uL; 2 U/mL UDG
1c; Reagent; 3 uL; 1 uM AID
2a; Compound; 46 nL; Follow-up plates (0.64 uM - 10 mM)
2b; Control; 46 nL; ATA ([…] - 10 mM)
3; Time; 10 min; incubation at room temperature
5; Time; 4 hr; incubation at room temperature
6; Reagent; 4 uL; [2x] 250 mM NaOH
7; Time; 15 sec; centrifuge at 1000 rpm
8; Time; 30 min; incubation at room temperature
9a; Detection; fluorescence (Read 1: AID); EnVision (PerkinElmer) plate reader, 540 excitation and 590 emission filters
9b; Detection; fluorescence (Read 2: UDG); EnVision (PerkinElmer) plate reader, 560 excitation and 665 emission filters
NOTES (numbers refer to sequence above)
1a; Reagents were dispensed in a medium-binding black solid-bottom Greiner plates (789176F) using a BioRptr liquid dispenser. Dispense 3 uL of [4/3x] 1 uM AID (provided by Kohli lab) and [4/3x] 2 U/mL UDG (NEB M0280L) into columns 1, 2, 5 to 48.
1b; Dispense 3 uL of [4/3x] 2 U/mL UDG into column 3.
1c; Dispense 3 uL of [4/3x] 1 uM AID into column 4.
2a; Compound (7-points [uM]: 0.64; 3.2; 16; 80; 400; 2,000; 10,000; […]) double pin-transferred (Dip Factor = 2) using the Kalypsys (Wako USA) pintool equipped with a 1536 pinhead for a final concentration range of 7.32 nM - 114 uM.
2b; 10 mM Aurintricarboxylic Acid (Sigma A1895) (ATA, 8-point, n = 2, 1:2.5 dilution in column 2) double pin-transferred (Dip Factor = 2) using the Kalypsys (Wako USA) pintool equipped with a 1536 pinhead for a [final] range of 186 nM - 114 uM.
3; Room temperature incubation.
4; Dispense 1 uL of substrate mixture from the Kohli lab [4x] […] DJC20 and [4x] 250 nM DJC23 into columns 1 to 48 .
5; Room temperature incubation.
6; Dispense 4 uL of substrate mixture [2x] 250 mM NaOH into columns 1 to 48.
7; Centrifugation step to remove bubbles.
8; Room temperature incubation
9a; Fluorescence signal (column label AID) was read using the EnVision plate reader. […]
Take `CCOc1ccc2nc(Cl)c(C3CC(c4ccc(C)cc4)=NN3C(=O)CCC(=O)O)cc2c1` (configuration not stated): the activity change, negative = inhibition is inactive: 4.17%.
With `COc1ccc(-n2nc3c(N4CCC(C(=O)N5CCC(C)CC5)CC4)nnc(C)c3c2C)cc1`, the activity change, negative = inhibition was inactive: 8.91%.
Turning to `Cc1ccc(Cl)cc1N1CCN(C(=O)c2ccc3c(Cl)c4c(nc3c2)CCCC4)CC1`, the activity change, negative = inhibition was inactive: 11.4%.
Consider `COc1cccc(-c2nc(CS(=O)(=O)CC(=O)N3CCN(c4ccccc4)CC3)c(C)o2)c1`, for which the activity change, negative = inhibition was inactive: -3.04%.
Turning to `O=S(=O)(NCCc1nnc2ccc(SCc3ccccc3Cl)nn12)c1ccccc1`, the activity change, negative = inhibition is inactive: -3.37%.
In the case of `CCc1ccc(OCC(=O)N(Cc2ccc(C(C)C)cc2)C2CCS(=O)(=O)C2)cc1` (configuration not stated), the activity change, negative = inhibition was inactive: -3.87%.
With `O=C(CSc1nnc(-c2ccccc2Cl)o1)N1CCCc2ccccc21` the figure was inactive: -3.12%; with `Cc1ccc(Cn2c(SCc3ccc(C(=O)N4CCCCCC4)cc3)nc3ccncc32)cc1`, inactive: 2.48%.
On to `CCCCCSc1nc2sc3c(c2c(=O)n1-c1ccccc1)CCN(C(C)=O)C3`, for which the activity change, negative = inhibition was inactive: -5.51%.
As to `COc1cc(C(c2c(C)[nH][nH]c2=O)c2c(C)[nH][nH]c2=O)ccc1OC(=O)c1cccc(C)c1`, the activity change, negative = inhibition is inactive: -10.8%.
Regarding `COc1ccc(Cn2cc(C(=O)c3ccc(C)cc3)c(=O)c3cc(OC)c(OC)cc32)cc1`, the activity change, negative = inhibition is inactive: -9.13%.
As to `COc1ccc(S(=O)(=O)N(CC(=O)Nc2cccc(C(F)(F)F)c2)c2ccc(C)cc2)cc1`, the activity change, negative = inhibition is inactive: -15.6%.
`CCOC(=O)C1=C(CN2CCN(c3ccccc3F)CC2)NC(=O)NC1c1ccc(Cl)cc1` (configuration not stated): the activity change, negative = inhibition is inactive: -10.4%.
In the case of `CCN(C(=O)c1cc2cc3ccc(OC)cc3nc2o1)c1cccc(C)c1`, the activity change, negative = inhibition was inactive: -18.5%.
As for `O=C(CSc1nc2ccccc2nc1Cc1ccccc1)Nc1ccccc1C(F)(F)F`, the activity change, negative = inhibition is inactive: -4%.
With `CCc1nn(CCCC(=O)NCc2cc(Br)ccc2OC)c(=O)c2cc3occc3n12`, the activity change, negative = inhibition was inactive: 4.28%.
Take `CCOCCCn1c(=N)c(C(=O)NC(C)c2ccccc2)cc2c(=O)n3cccc(C)c3nc21` (configuration not stated): the activity change, negative = inhibition is inactive: -12.7%.
`CN(C(=O)c1ccc2c(c1)N(Cc1ccc(F)cc1)C(=O)c1ccccc1S2(=O)=O)C1CCCCC1`: the activity change, negative = inhibition was inactive: -12.6%.
Consider `Cc1cccc(N2CCN(C(=O)c3cccn3-c3nnc(N4CCCCC4)s3)CC2)c1C`, for which the activity change, negative = inhibition was inactive: -2.85%.
For `Cc1ccc(Cl)cc1N1CCN(C(=O)c2nn(C)c3c2CS(=O)(=O)c2ccccc2-3)CC1`, the activity change, negative = inhibition is inactive: -8.81%.
As for `CCOc1ccc(S(=O)(=O)c2c(C(=O)c3ccc(C)c(C)c3)cnc3ccccc23)cc1`, the activity change, negative = inhibition was inactive: -3.6%.
For the compound `CCc1ccc2oc(C(=O)NCC(c3ccc(Cl)cc3)N3CCOCC3)c(C)c2c1` (configuration not stated), the activity change, negative = inhibition is inactive: -10.8%.
